Reference: patent publication US20240132589A1
No constants are given. Whether binding was seen depends on the method and setting. Some binding calls cover weakened binding; strength is not graded here.

By UniProt entry, the sequences of proteins in these tests, tags left out. Where a name states a change or a piece, a line headed by the entry shows the natural chain unless it says otherwise.
UniProt Q8N423: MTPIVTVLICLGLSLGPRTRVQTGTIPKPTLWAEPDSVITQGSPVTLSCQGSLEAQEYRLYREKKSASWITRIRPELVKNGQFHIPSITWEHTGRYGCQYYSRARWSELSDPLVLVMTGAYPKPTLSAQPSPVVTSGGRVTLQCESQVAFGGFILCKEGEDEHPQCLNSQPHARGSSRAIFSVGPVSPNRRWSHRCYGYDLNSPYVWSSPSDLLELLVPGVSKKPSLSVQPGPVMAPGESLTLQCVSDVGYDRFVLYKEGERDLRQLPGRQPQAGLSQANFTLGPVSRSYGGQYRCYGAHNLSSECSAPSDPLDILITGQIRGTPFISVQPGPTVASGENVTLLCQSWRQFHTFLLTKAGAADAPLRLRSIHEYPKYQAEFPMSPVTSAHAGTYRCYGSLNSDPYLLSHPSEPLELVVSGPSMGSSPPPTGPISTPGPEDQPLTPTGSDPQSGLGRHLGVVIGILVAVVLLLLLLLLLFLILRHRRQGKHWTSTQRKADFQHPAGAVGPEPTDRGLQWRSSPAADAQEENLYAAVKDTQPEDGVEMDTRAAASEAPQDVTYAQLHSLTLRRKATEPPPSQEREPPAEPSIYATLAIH

Legend:
[1] = target: Recombinant human LILRB2 protein (ELISA antigen) (human) (UniProt Q8N423); test: ELISA, plate-coated recombinant human LILRB2
[2] = target: Human LILRB2 on stably transduced HEK293T cells (human) (UniProt Q8N423); test: flow cytometry, HEK293T cells stably expressing human LILRB2

Binder | binding [1] | binding [2]
B2H4-41 (antibody, V domains shown) VH: EVQLLESGGRLVQPGTSLRLSCAVSGFSLSTYAMSWVRQAPGKGLEWIGWIYNDGSTYYAAWAKGRFTISKDTSKTTLYLQMNSLTVEDTATYFCAREGDYIGYFNIWGQGTLVTVSS VL: DIQMTQSPSSLSASVGDRVTITCQASQSIGSNLAWYQLKPGQRPKLLIYAAATLASGVPSRFKGSGSGTDFTLTISSLQSEDAATYYCQSYVSGSSDVAFGGGTEVVVK | binds | binds
B2H4-13 (antibody, V domains shown) VH: QVQLEESGGRVVQPGRSLRLSCAASGFSLSTYAMSWVRQAPGKGLEWIGWIYNDGSTYYAAWAKGRFTISKDTSKTTVFLQMNSLKPDDTATYFCAREGDYIGYFNIWGQGTLVTVSS VL: DIEMTQSPSSVSASVGDRVTLTCQASQSIGSNLAWYQQKPGQAPKLLIYAAATLASGVPSRFKGSGSGTDFTLTISSLQPEDFATYYCQSYVSGSSDVAFGGGTEVVVK | binds | binds
B2H4-25 (antibody, V domains shown) VH: EVQLVESGGDLATPGGSLRLSCAVSGFSLSTYAMSWVRQAPGKGLEWVGWIYNDGSTYYAAWAKGRFTISKDTSKTTVYLQMTSLRAEDTALYFCAREGDYIGYFNIWGQGTLVTVSS VL: DVVMTQTPSSVSAALGGTVTIKCQASQSIGSNLAWYQLKPGQRPKLLIYAAATLASGGSSRFKGSGSGTDFTLTISSLEPADAATYYCQSYVSGSSDVAFGGGTEVVVK | binds | binds
B2H4-35 (antibody, V domains shown) VH: QVQLVESGGRVVQPGTPLRLSCAASGFSLSTYAMSWVRQAPGKGLEWVAWIYNDGSTYYAAWAKGRFTISRDTSKNTLYLQTNSLKPDDTAVYYCAREGDYIGYFNIWGQGTLVTVSS VL: DVVMTQTPSSVSAALGGTVTIKCQASQSIGSNLAWYQLKPGQRPKLLIYAAATLASGGSSRFKGSGSGTDFTLTISSLEPADAATYYCQSYVSGSSDVAFGGGTEVVVK | binds | binds
B2H4-24 (antibody, V domains shown) VH: EVQLVESGGDLATPGGSLRLSCAVSGFSLSTYAMSWVRQAPGKGLEWVGWIYNDGSTYYAAWAKGRFTISKDTSKTTVYLQMTSLRAEDTALYFCAREGDYIGYFNIWGQGTLVTVSS VL: DIQMTQSPSSVSASVGDRVTITCQASQSIGSNLAWYQQKPGKAPKLLIYAAATLASGVPLRFSGSGSGTDFTLTISNLQPEDSATYYCQSYVSGSSDVAFGGGTKVEIK | binds | binds

Other lines, results leading:

binding [1] | binding [2] | Binder
binds | binds | B2H4-45 (antibody, V domains shown) VH: EVQLLESGGRLVQPGTSLRLSCAVSGFSLSTYAMSWVRQAPGKGLEWIGWIYNDGSTYYAAWAKGRFTISKDTSKTTLYLQMNSLTVEDTATYFCAREGDYIGYFNIWGQGTLVTVSS VL: DVVMTQTPSSVSAALGGTVTIKCQASQSIGSNLAWYQLKPGQRPKLLIYAAATLASGGSSRFKGSGSGTDFTLTISSLEPADAATYYCQSYVSGSSDVAFGGGTEVVVK
binds | binds | B2H4-54 (antibody, V domains shown) VH: EVQLLESGGGLVQPGTSLTLSCAASGFSLSTYAMSWVRQAPGKGLEWIGWIYNDGSTYYAAWAKGRFTISKDTSKTTLYLQITSLRAEDTATYFCAREGDYIGYFNIWGQGTLVTVSS VL: DIQMTQSPSSVSASVGDRVTITCQASQSIGSNLAWYQQKPGKAPKLLIYAAATLASGVPLRFSGSGSGTDFTLTISNLQPEDSATYYCQSYVSGSSDVAFGGGTKVEIK
binds | binds | B2H4-51 (antibody, V domains shown) VH: EVQLLESGGGLVQPGTSLTLSCAASGFSLSTYAMSWVRQAPGKGLEWIGWIYNDGSTYYAAWAKGRFTISKDTSKTTLYLQITSLRAEDTATYFCAREGDYIGYFNIWGQGTLVTVSS VL: DIQMTQSPSSLSASVGDRVTITCQASQSIGSNLAWYQLKPGQRPKLLIYAAATLASGVPSRFKGSGSGTDFTLTISSLQSEDAATYYCQSYVSGSSDVAFGGGTEVVVK
